{
  "sequences": {"note": "By UniProt entry, the sequences of proteins in these tests, tags left out. Residues count along the entry.", "UniProt P21860, residues 20-1342": "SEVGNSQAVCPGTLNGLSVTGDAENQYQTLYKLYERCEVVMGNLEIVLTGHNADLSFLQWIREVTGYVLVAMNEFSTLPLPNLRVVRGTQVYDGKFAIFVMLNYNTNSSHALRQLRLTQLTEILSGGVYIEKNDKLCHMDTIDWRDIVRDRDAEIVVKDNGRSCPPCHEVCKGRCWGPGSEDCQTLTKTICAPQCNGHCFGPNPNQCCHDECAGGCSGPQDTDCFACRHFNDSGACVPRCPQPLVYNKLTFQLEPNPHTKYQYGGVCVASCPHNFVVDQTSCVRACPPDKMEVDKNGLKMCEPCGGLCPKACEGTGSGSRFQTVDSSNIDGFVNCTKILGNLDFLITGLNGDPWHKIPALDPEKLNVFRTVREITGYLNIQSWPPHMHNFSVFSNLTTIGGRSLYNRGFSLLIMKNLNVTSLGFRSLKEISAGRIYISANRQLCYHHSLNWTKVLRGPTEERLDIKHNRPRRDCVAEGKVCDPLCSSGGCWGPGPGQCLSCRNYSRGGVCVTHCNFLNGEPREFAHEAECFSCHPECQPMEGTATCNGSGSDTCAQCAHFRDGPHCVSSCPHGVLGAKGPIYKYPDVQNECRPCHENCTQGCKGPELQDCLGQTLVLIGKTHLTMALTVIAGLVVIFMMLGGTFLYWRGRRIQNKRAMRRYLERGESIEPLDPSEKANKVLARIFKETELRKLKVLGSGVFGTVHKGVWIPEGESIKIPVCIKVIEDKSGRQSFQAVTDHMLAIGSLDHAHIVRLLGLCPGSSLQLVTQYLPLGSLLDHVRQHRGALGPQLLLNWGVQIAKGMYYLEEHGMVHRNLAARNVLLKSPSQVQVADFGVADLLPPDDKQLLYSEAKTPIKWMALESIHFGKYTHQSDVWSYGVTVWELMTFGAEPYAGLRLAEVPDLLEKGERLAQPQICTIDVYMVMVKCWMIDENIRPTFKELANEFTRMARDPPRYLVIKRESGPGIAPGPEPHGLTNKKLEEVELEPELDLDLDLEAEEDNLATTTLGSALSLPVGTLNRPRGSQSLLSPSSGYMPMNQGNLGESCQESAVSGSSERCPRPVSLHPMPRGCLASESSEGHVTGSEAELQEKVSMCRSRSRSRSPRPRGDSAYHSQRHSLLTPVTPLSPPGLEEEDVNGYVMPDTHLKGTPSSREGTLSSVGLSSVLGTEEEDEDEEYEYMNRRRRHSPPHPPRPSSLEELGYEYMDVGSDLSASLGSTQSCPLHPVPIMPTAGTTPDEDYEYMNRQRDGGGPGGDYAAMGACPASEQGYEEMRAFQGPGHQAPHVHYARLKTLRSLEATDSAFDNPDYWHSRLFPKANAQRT", "UniProt P15941, residues 24-1255": "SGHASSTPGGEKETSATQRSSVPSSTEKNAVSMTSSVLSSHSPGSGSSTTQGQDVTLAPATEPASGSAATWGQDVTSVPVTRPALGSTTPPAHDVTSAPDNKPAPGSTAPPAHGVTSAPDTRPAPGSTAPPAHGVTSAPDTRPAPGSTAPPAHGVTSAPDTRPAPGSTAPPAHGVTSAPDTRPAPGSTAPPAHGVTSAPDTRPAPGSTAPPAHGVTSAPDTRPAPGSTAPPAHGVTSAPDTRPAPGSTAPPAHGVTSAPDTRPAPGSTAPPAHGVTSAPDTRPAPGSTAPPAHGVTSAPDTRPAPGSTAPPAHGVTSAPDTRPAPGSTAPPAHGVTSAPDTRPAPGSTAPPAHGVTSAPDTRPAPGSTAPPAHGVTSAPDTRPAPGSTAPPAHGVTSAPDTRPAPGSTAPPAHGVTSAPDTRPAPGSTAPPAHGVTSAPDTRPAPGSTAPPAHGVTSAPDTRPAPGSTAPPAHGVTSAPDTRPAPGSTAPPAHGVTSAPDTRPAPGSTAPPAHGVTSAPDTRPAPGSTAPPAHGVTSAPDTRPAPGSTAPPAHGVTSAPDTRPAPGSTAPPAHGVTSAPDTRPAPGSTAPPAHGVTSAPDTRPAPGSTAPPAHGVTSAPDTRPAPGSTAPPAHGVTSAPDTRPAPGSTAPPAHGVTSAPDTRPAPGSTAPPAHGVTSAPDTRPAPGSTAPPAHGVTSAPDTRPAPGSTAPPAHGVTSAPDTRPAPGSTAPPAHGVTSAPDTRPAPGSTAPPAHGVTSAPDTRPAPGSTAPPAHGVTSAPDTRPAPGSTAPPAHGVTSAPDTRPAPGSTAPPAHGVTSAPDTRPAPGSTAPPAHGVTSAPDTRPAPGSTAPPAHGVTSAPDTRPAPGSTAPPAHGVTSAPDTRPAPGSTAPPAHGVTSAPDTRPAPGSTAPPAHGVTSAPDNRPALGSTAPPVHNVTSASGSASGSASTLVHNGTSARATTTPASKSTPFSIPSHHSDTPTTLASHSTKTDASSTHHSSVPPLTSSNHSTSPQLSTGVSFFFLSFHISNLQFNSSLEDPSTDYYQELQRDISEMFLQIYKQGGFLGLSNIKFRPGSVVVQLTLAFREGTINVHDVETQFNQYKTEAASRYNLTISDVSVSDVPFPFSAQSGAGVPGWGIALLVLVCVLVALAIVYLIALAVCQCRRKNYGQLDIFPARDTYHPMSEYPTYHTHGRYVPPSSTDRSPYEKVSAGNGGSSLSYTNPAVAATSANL"},
  "source": "paper PMC4308848",
  "biological_target": "human epidermal growth factor receptor 3 (human (endogenous in BT-474)) (UniProt P21860)",
  "assay": "co-IP; BT-474 cell lysates incubated with MUC1, EGFR and HER3 antibodies overnight, Western blot; BT-474 WT against TR, rhECM1 treatment (200 ng/ml, 48 h), ECM1 overexpression, ECM1 shRNA in TR cells",
  "note": "These are yes or no findings as the source states them, for the method shown. In cells and extracts the contact can be indirect. Some entries that bind do so weakly or less than the wild type.",
  "data": [
    {"substance": "mucin 1 (from UniProt P15941 24-1255)", "values": [
      {"measurement": "binding", "result": "binds"}
    ]}
  ]
}
